# From PubChem BioAssay AID2685 (National Center for Advancing Translational Sciences (NCATS), 2010)
# Some of the results follow. Shown are side measurements of this screen, not its main read-out; they come without a call. Compounds called inactive in the main read-out are mostly missing here. Words in brackets tell the shape of the fitted curve; partial curves, single points and poor fits give uncertain potencies.
# Assay: qHTS Assay for Lipid Storage Modulators in Drosophila S3 Cells;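 on cell number change: cells counted by Cell Tracker Red CMTPX staining in the red channel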
# Details: BODIPY lipid droplet fluorescence, 18-24 h; for cell number change: measured here: cell count max response, cells fed with added oleic acid
# In short: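 Drosophila S3 cells got compounds at several concentrations plus oleic acid (400 uM solution). Laser-scanning cytometry with 488 nm excitation read lipid droplets at 500-530 nm and cells at 575-640 nm. Percent activity was relative to 20 uM Triacsin C.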
# [1] = measured here: cell number channel AC50, cells fed with added oleic acid
# [2] = measured here: lipid fluorescence (Fed channel) AC50, cells fed with added oleic acid
SMILES,cell number change [%],AC50 [1],AC50 [2]
O=C(COC(=O)c1nn(-c2ccccc2C(F)(F)F)cc1O)c1ccc(OC(F)F)cc1,170,–,–
CCn1cnc2c1c(=O)n(CC(=O)Nc1cc(C)on1)c(=O)n2Cc1ccccc1,-11.2,–,–
O=C(Nc1cccc(O)c1)c1noc2c1CCc1ccccc1-2,-71.4,"29.1 µM [falling, single point]","23.1 µM [falling, single point]"
COc1cc(NC(=S)NCCCN2CCOCC2)cc(OC)c1,4.24,–,"3.26 µM [falling, full curve, poor fit]"
CC1CCCCC1NC(=O)C1CCN(c2c3c(nc4ncnn24)CCC3)CC1 (configuration not stated),–,–,"6.51 µM [rising, single point]"
CCN(CC)C(=O)CSc1nc2ncc(Br)cc2[nH]1,0.148,–,–
Cc1nn(C(C)C(=O)NCc2cccs2)c(C)c1[N+](=O)[O-] (configuration not stated),-13.1,–,–
O=C(NCc1cccc(Cl)c1)c1ccc(S(=O)(=O)Nc2cccc(C(F)(F)F)c2)cc1,-39.5,"0.82 µM [falling, partial curve, poor fit]","23.1 µM [falling, partial curve]"
COc1ccc(C(CCN2CCCC2)c2c(O)cc(OC)cc2OC)cc1 (configuration not stated),17.5,–,"10.3 µM [rising, partial curve, poor fit]"
CCOC(=O)COn1c(SCC(=O)OCC)nc2ccccc2c1=O,4.23,–,–
COn1c(-c2ccc(Cl)cc2Cl)nc2ncccc21,–,–,"6.51 µM [rising, single point]"
Cc1ccc(C(=O)OC(C)C(=O)NC2CCCCC2C)cc1S(=O)(=O)N1CCCCC1 (configuration not stated),14.4,–,"2.91 µM [rising, single point]"
CC(=O)C1=C(O)C(=O)N(Cc2ccco2)C1c1ccc(F)cc1 (configuration not stated),-223,"29.1 µM [falling, partial curve]","29.1 µM [falling, partial curve]"
O=C(COC(=O)c1cccs1)c1ccc2c(c1)OCCO2,-74.8,"29.1 µM [falling, single point]","18.4 µM [falling, partial curve]"
O=c1c(Cl)c(Cl)cnn1-c1ccccc1,-14.6,–,"2.91 µM [falling, full curve]"
COc1ccccc1N1CCN(C(=O)c2oc3ccccc3c2C)CC1,-60.9,"16.4 µM [falling, single point]","8.2 µM [rising, partial curve, poor fit]"
S=c1[nH]nc(-c2ccccn2)n1/N=C/c1ccc(-c2ccccc2Cl)o1,-0.227,–,–
O=C(CCC(=O)N1CCOc2ccc(Cl)cc21)NCCN1CCOCC1,3.46,–,"29.1 µM [rising, single point]"
O=C(O)CCc1ccc(-c2ccc(F)cc2)n1NC(=O)c1ccco1,-39.1,–,"1.84 µM [falling, partial curve]"
Cc1cc(C(=O)N2CCCC(C(=O)c3ccc4ccccc4c3)C2)n(C)n1 (configuration not stated),–,–,"20.6 µM [falling, single point]"
COc1ccc(C)cc1NC(=O)C(Sc1nnc(-c2cccs2)o1)c1ccccc1 (configuration not stated),–,–,"0.184 µM [rising, full curve, poor fit]"

# Entries of single compounds, quoted from the list. Values in the order: cell number change [%] | AC50 [1] | AC50 [2]
# Cc1cc(C(=O)N2CCCC(C(=O)c3ccc4ccccc4c3)C2)n(C)n1 (configuration not stated) reads – | – | 20.6 µM [falling, single point]
# CC(=O)C1=C(O)C(=O)N(Cc2ccco2)C1c1ccc(F)cc1 (configuration not stated) reads -223 | 29.1 µM [falling, partial curve] | 29.1 µM [falling, partial curve]
# CCn1cnc2c1c(=O)n(CC(=O)Nc1cc(C)on1)c(=O)n2Cc1ccccc1 reads -11.2 | – | –

# More results.

SMILES,cell number change [%],AC50 [1],AC50 [2]
COC(=O)CCC(=O)OC1(C)C(=O)C=C2C=C(C3CC3)N(CCCOC(C)C)C=C2C1=O (configuration not stated),-38.6,"2.06 µM [falling, full curve, poor fit]",–
CC1CCCC(NC(=O)Cn2cc3c(n2)CCCCC3)C1C (configuration not stated),3.93,"0.00517 µM [falling, full curve, poor fit]","0.146 µM [rising, full curve, poor fit]"
Cc1c(C(=O)N(C)C)sc2nc(-c3ccccn3)[nH]c(=O)c12,113,"11.6 µM [rising, partial curve]",–
CCOc1nc(N2CCOCC2)nc(N2CCOCC2)n1,-25.5,–,"0.259 µM [falling, full curve, poor fit]"
CC(C)(C)NC(=O)c1cc(NC(=O)c2ccco2)cc(NC(=O)c2ccco2)c1,19.7,–,"6.51 µM [rising, partial curve]"
CCCC(C)NC(=O)C1c2ccccc2Oc2ccccc21 (configuration not stated),-10.4,–,"0.517 µM [rising, full curve, poor fit]"
CCCOc1cccc(C2/C(=C(/O)c3ccccc3)C(=O)C(=O)N2CCN(C)C)c1 (configuration not stated),-45.4,"2.91 µM [falling, full curve]","3.66 µM [falling, full curve]"
COc1ccc(COC(=O)Nc2c(SC)nsc2SC)cc1,8.47,–,–
CCOc1ccc(CNC(=O)c2nnc(CS(=O)(=O)c3ccccc3)o2)cc1OC,24.8,–,"29.1 µM [rising, single point]"
COc1ccc(Cc2nc3ccc(C(=O)N4CCCN(C=O)CC4)cc3o2)cc1,90.4,"25.9 µM [rising, single point]","29.1 µM [rising, single point]"
CC(=O)Nc1ccc(NC(=O)CSc2nc3ccccc3nc2N2CCCCC2)cc1,3.33,–,–
COC(=O)C1=C(C)NC(=O)NC1c1cc(Cl)ccc1OC (configuration not stated),–,"0.58 µM [falling, single point]",–
Cc1oc(CSCCSCc2cc(C(=O)O)c(C)o2)cc1C(=O)O,-3.65,–,–
CC1=C(C(=O)OCc2ccccc2)C(c2ccsc2)NC(=O)N1C (configuration not stated),110,"25.9 µM [rising, partial curve]",–
O=C(NCCCO)c1c(O)c2cccc3c2n(c1=O)CCC3,2.84,–,–
CC1Oc2ccccc2N(CC(=O)NC2CCCCC2)C1=O (configuration not stated),8.47,–,–
CNC(=O)CCC(=O)Nc1ccc(C(=O)OC)cc1,41.3,"20.6 µM [rising, single point]","13 µM [rising, partial curve]"
COC(=O)NCC(c1ccc2c(c1)OCO2)N1CCN(c2ccc(OC)cc2)CC1 (configuration not stated),7.03,–,–
Cc1ccc(C(=O)Nc2nnc(CC(=O)N/N=C/c3ccncc3)s2)cc1,7.06,–,"6.51 µM [falling, single point]"
Cc1nnc(N2C(=O)c3cccc4c([N+](=O)[O-])ccc(c34)C2=O)s1,-20.9,"3.26 µM [falling, partial curve, poor fit]","0.58 µM [rising, single point]"
CCC(C)(C)NC(=O)C(c1ccc(F)cc1)N(Cc1ccccc1)C(=O)c1cnccn1 (configuration not stated),–,–,"23.1 µM [rising, single point]"

SMILES,cell number change [%],AC50 [1],AC50 [2]
O=C(Cn1nc(Cc2cccnc2)c2ccccc2c1=O)N1CCN(C(=O)c2ccco2)CC1,11.3,–,–
COc1ccc(C/C(C)=N/NC(=O)C2COc3ccccc3O2)cc1 (configuration not stated),40.6,"29.1 µM [rising, single point]",–
N=C1C(=O)OCC1c1cc(Cl)ccc1NC(=O)Nc1ccccc1 (configuration not stated),-21.1,–,"9.2 µM [falling, single point]"
CCOc1ccc2nc(NC(=O)CN3CCN(C)CC3)sc2c1,170,"29.1 µM [rising, single point]",–
Cc1ccc(/C=N/NC(=O)c2ccccn2)s1,-0.884,–,"29.1 µM [falling, single point]"
CC(/C=N/NC(=O)c1ccncc1)=C\c1ccc(C(C)C)cc1,–,–,"4.61 µM [falling, single point]"
Cc1nnc(Nc2ccccc2F)s1,–,–,"18.4 µM [rising, single point]"
COc1ccc(-n2c(SCC(=O)NCC3CCCO3)nc3c(c2=O)SCC3)cc1 (configuration not stated),28,–,"32.6 µM [rising, single point]"
COc1ccccc1C(=O)NC(C)c1nc2ccccc2[nH]1 (configuration not stated),1.66,–,"20.6 µM [rising, single point]"
O=C(CNS(=O)(=O)c1c(Cl)cccc1Cl)OCC(=O)c1ccc[nH]1,0.66,"5.8 µM [falling, partial curve]","3.66 µM [falling, partial curve]"
COc1cc(C(=O)Nn2c(CC(C)C)nc3ccccc3c2=O)cc(OC)c1OC,17.3,–,"0.13 µM [rising, full curve, poor fit]"
Cc1nc2ccccn2c1P(=Nc1ccccc1)(N(C)C)N(C)C,-51.2,"29.1 µM [falling, single point]","4.11 µM [falling, full curve]"
CCc1nn(CC(=O)Nc2ccc(Br)c(C)c2)c(=N)s1,-37.6,–,–
O=C(Nc1c(Cl)cccc1Cl)C1CCC1,6.64,–,–
O=C(CSc1nnc(-c2ccncc2)o1)Nc1ccccc1Cl,116,"29.1 µM [rising, single point]",–
O=C(OC1CCN(c2ccc([N+](=O)[O-])cc2)CC1)c1ccccc1,44.7,"0.164 µM [rising, full curve, poor fit]","20.6 µM [rising, single point]"
O=C(Cc1nc2ccccc2[nH]1)c1ccc([N+](=O)[O-])cc1,1.26,"0.461 µM [falling, full curve]","0.731 µM [falling, full curve, poor fit]"
O=C1/C(=C/c2cccnc2)SC(=S)N1CC1CCCO1 (configuration not stated),19.8,–,"1.3 µM [rising, full curve]"
COC(=O)c1ccc2c(c1)NC(=O)C(N1CCCC1)S2 (configuration not stated),23.9,–,"0.184 µM [falling, full curve, poor fit]"
COc1ccc(C(=O)NCc2ccc3c(c2)OCO3)c(OC)c1,-9.09,–,–
CCCc1cc(=O)[nH]c(SCCCCN2C(=O)c3ccccc3C2=O)n1,41.1,"4.61 µM [rising, partial curve, poor fit]","0.366 µM [rising, full curve, poor fit]"
